Results as given in article PMC3708844 (2013).
These are yes or no findings as the source states them, for the method shown. In cells and extracts the contact can be indirect. Some results given as binding are weak or reduced against the parent protein; the word gives no strength. Tags and fused reporters may be left off the sequences shown.

Assays:
[1] = target: T1, GST-SHI1 fusion protein (Arabidopsis thaliana) (UniProt Q8W4B1); experiment: pull-down; GST-SHI1 immobilised on GST Bind Resin, incubated with 35S-labelled in vitro translated HIS-cFRY2 for 30 min at room temperature in 20 mM Tris-HCl pH 7.2, 10 mM MgCl2, 2 mM DTT; washed with PBS; autoradiography; only the target purified
T1 sequence: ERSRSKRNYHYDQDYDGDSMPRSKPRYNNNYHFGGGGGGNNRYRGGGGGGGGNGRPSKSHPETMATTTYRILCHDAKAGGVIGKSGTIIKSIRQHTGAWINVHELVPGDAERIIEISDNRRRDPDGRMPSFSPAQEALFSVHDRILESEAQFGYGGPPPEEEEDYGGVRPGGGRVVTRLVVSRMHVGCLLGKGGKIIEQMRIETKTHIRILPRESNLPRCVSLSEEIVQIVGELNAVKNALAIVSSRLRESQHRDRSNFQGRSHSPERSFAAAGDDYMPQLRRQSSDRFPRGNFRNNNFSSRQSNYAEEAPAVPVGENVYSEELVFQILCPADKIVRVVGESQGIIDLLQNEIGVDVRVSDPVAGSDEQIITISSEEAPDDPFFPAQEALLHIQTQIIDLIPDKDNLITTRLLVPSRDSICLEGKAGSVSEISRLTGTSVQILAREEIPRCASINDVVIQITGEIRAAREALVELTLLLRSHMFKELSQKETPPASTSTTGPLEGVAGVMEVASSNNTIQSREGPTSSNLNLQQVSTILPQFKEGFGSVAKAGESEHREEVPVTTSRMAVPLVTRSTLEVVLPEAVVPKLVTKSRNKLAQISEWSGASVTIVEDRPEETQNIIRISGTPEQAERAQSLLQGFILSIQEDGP

[2] = target: T2, SHI1 fused with the N-terminal portion of the luciferase (Arabidopsis thaliana) (UniProt Q8W4B1); experiment: split reporter; split luciferase (Renilla reniformis) complementation, fusion proteins co-expressed in Arabidopsis protoplasts; luciferase imaging in 96-well plate
T2 sequence: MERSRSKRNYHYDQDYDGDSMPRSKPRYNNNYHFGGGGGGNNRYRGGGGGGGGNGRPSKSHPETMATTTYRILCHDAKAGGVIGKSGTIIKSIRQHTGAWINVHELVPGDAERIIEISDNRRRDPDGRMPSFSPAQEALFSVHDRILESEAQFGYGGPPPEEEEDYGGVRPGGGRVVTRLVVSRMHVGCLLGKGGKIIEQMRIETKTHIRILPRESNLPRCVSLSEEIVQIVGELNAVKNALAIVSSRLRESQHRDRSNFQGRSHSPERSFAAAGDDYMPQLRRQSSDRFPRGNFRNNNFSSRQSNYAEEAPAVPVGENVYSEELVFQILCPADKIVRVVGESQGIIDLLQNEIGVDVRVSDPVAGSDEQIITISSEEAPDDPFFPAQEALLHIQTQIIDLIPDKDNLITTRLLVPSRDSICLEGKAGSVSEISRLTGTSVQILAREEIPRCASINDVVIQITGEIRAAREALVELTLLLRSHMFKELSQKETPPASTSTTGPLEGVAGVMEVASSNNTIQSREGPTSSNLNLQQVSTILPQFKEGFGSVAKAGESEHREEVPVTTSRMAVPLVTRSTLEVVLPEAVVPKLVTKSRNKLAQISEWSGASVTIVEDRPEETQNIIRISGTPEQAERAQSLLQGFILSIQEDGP

[3] = target: T3, SHI1-nYFP (Arabidopsis thaliana) (UniProt Q8W4B1); experiment: split reporter; split YFP complementation in Arabidopsis protoplasts; fluorescence microscopy
T3 sequence: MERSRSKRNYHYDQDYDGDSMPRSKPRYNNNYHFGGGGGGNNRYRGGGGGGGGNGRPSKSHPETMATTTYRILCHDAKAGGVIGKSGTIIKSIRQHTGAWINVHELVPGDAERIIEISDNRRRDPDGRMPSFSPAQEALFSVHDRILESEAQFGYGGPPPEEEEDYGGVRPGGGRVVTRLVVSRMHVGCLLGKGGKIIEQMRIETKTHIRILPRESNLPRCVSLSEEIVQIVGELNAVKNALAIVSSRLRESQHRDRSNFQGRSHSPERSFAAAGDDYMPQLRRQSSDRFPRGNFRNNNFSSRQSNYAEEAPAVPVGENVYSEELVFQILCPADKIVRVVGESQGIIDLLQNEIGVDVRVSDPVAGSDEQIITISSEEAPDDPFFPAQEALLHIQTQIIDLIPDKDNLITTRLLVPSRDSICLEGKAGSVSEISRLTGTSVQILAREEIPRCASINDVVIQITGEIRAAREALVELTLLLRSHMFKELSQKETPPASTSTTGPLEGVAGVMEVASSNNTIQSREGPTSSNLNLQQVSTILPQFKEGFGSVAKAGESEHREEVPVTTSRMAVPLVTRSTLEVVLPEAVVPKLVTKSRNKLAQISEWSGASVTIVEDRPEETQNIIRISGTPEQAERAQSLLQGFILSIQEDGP

B1: HIS-cFRY2 (FRY2/CPL1 666-855, including the first dsRNA binding domain) (domain or fragment, UniProt Q5YDB6 666-855)
chain: MLHENRRPPKESLRRDEQLRSNNNLPDSHPFYGEDASWNQSSSRNSDLDFLPERSVSATETSADVLHGIAIKCGAKVEYKPSLVSSTDLRFSVEAWLSNQKIGEGIGKSRREALHKAAEASIQNLADGYMRANGDPGPSHRDATPFTNENISMGNANALNNQPFARDETALPVSSRPTDPRLEGSMRHTG
modifications: 35S-methionine labelled
In the case of B1, the binding [1] is reported as “binds”.

B2: FRY2/CPL1 fused with the C-terminal part of the luciferase (protein, UniProt Q5YDB6 1-967)
chain: MYSNNRVEVFHGDGRLGELEIYPSRELNQQQDDVMKQRKKKQREVMELAKMGIRISHFSQSGERCPPLAILTTISSCGLCFKLEASPSPAQESLSLFYSSCLRDNKTAVMLLGGEELHLVAMYSENIKNDRPCFWAFSVAPGIYDSCLVMLNLRCLGIVFDLDETLVVANTMRSFEDKIDGFQRRINNEMDPQRLAVIVAEMKRYQDDKNLLKQYIESDQVVENGEVIKVQSEIVPALSDNHQPLVRPLIRLQEKNIILTRINPMIRDTSVLVRMRPSWEELRSYLTAKGRKRFEVYVCTMAERDYALEMWRLLDPEGNLINTNDLLARIVCVKSGFKKSLFNVFLDGTCHPKMALVIDDRLKVWDEKDQPRVHVVPAFAPYYSPQAEAAATPVLCVARNVACGVRGGFFRDFDDSLLPRIAEISYENDAEDIPSPPDVSHYLVSEDDTSGLNGNKDPLSFDGMADTEVERRLKEAISASSAVLPAANIDPRIAAPVQFPMASASSVSVPVPVQVVQQAIQPSAMAFPSIPFQQPQQPTSIAKHLVPSEPSLQSSPAREEGEVPESELDPDTRRRLLILQHGQDTRDPAPSEPSFPQRPPVQAPPSHVQSRNGWFPVEEEMDPAQIRRAVSKEYPLDSEMIHMEKHRPRHPSFFSKIDNSTQSDRMLHENRRPPKESLRRDEQLRSNNNLPDSHPFYGEDASWNQSSSRNSDLDFLPERSVSATETSADVLHGIAIKCGAKVEYKPSLVSSTDLRFSVEAWLSNQKIGEGIGKSRREALHKAAEASIQNLADGYMRANGDPGPSHRDATPFTNENISMGNANALNNQPFARDETALPVSSRPTDPRLEGSMRHTGSITALRELCASEGLEMAFQSQRQLPSDMVHRDELHAQVEIDGRVVGEGVGSTWDEARMQAAERALSSVRSMLGQPLHKRQGSPRSFGGMSNKRLKPDFQRSLQRMPSSGRYS
B2 was tested, and the binding [2] was “binds”.

B3: FRY2-cYFP (protein, UniProt Q5YDB6 1-967)
chain: MYSNNRVEVFHGDGRLGELEIYPSRELNQQQDDVMKQRKKKQREVMELAKMGIRISHFSQSGERCPPLAILTTISSCGLCFKLEASPSPAQESLSLFYSSCLRDNKTAVMLLGGEELHLVAMYSENIKNDRPCFWAFSVAPGIYDSCLVMLNLRCLGIVFDLDETLVVANTMRSFEDKIDGFQRRINNEMDPQRLAVIVAEMKRYQDDKNLLKQYIESDQVVENGEVIKVQSEIVPALSDNHQPLVRPLIRLQEKNIILTRINPMIRDTSVLVRMRPSWEELRSYLTAKGRKRFEVYVCTMAERDYALEMWRLLDPEGNLINTNDLLARIVCVKSGFKKSLFNVFLDGTCHPKMALVIDDRLKVWDEKDQPRVHVVPAFAPYYSPQAEAAATPVLCVARNVACGVRGGFFRDFDDSLLPRIAEISYENDAEDIPSPPDVSHYLVSEDDTSGLNGNKDPLSFDGMADTEVERRLKEAISASSAVLPAANIDPRIAAPVQFPMASASSVSVPVPVQVVQQAIQPSAMAFPSIPFQQPQQPTSIAKHLVPSEPSLQSSPAREEGEVPESELDPDTRRRLLILQHGQDTRDPAPSEPSFPQRPPVQAPPSHVQSRNGWFPVEEEMDPAQIRRAVSKEYPLDSEMIHMEKHRPRHPSFFSKIDNSTQSDRMLHENRRPPKESLRRDEQLRSNNNLPDSHPFYGEDASWNQSSSRNSDLDFLPERSVSATETSADVLHGIAIKCGAKVEYKPSLVSSTDLRFSVEAWLSNQKIGEGIGKSRREALHKAAEASIQNLADGYMRANGDPGPSHRDATPFTNENISMGNANALNNQPFARDETALPVSSRPTDPRLEGSMRHTGSITALRELCASEGLEMAFQSQRQLPSDMVHRDELHAQVEIDGRVVGEGVGSTWDEARMQAAERALSSVRSMLGQPLHKRQGSPRSFGGMSNKRLKPDFQRSLQRMPSSGRYS
For B3, the binding [3] was “binds”.
